Taken from: PubChem BioAssay AID1259308 (NCATS, 2017)
Here is one part, drawn at random, of about 59,000 reagents. Over the whole deposit, about 1,510 (2.6%) were called active. 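Calls use total luciferase alone and ignore viability, so some active siRNAs may act by altering cell number.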 A number with no mark means an inactive call. Reagents against one gene are numbered here. Not all columns of the deposit are shown.

- Assay: 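Knock-downs that increase output of a recombinant reporter protein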 (primary screen)
- System: human HEK293 embryonic kidney cells stably expressing firefly luciferase (HEK-CMV-Luc2-Hygro)
- Reagents: single siRNA against human genes, 0.8 pmol siRNA per well
- Time to read-out: 72 h
- Read-out: 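Reporter luminescence and viable-cell signal on separate replicate plates, given as percent of non-targeting control and median/MAD z-scores, plus per-cell luciferase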
- Reading the numbers: total luciferase, z-score: higher = more reporter protein produced
- Call rule: 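Active when the median/MAD z-score for overall luciferase is greater than 3; a gene was taken forward for validation with new siRNAs if at least two of its three siRNAs passed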
- Calls: active = raised luciferase; inactive = no rise

total luciferase, z-score, by gene symbol and reagent
MPZL3 (myelin protein zero like 3): #1 0.551; #2 0.125; #3 0.0902
OCRL (OCRL inositol polyphosphate-5-phosphatase): #1 5.23 (active); #2 -0.29; #3 3.37 (active)
SLC71A1: #1 0.0116; #2 -0.255; #3 -0.3
KMT5B (lysine methyltransferase 5B): #1 0.958; #2 -0.596; #3 -0.227
UQCRFS1P2: #1 0.445; #2 -0.157; #3 -1.01
DHX34 (DExH-box helicase 34): #1 2.45; #2 -0.587; #3 -1.02
ADSS2 (adenylosuccinate synthase 2): #1 -0.609; #2 0.697; #3 -0.997
DUSP5 (dual specificity phosphatase 5): #1 1.49; #2 0.112; #3 1.07

3 entries already listed, sorted by “total luciferase, z-score”, lowest first.
gene symbol	reagent	total luciferase, z-score
DHX34 (DExH-box helicase 34)	3	-1.02
ADSS2 (adenylosuccinate synthase 2)	1	-0.609
ADSS2 (adenylosuccinate synthase 2)	2	0.697

Next records follow.
total luciferase, z-score, by gene symbol and reagent
KDM7A (lysine demethylase 7A): #1 0.195; #2 -1.99; #3 1.8
UQCRFS1: #1 0.634; #2 0.181; #3 0.304
SLC26A11: #1 1.56; #2 0.347; #3 0.333
PLA2G2E (phospholipase A2 group IIE): #1 0.262; #2 -1.08; #3 1.95
TRMT2A (tRNA methyltransferase 2A): #1 -0.351; #2 0.757; #3 0.0114
